Measurements from US6083741A, “Internalisation of DNA, using conjugates of poly-l-lysine and an integrin receptor ligand” (Imperial College of Science Technology and Medicine, priority 1994, dated 2000).
Not every detail of the peptide structures is certain; ends, links or a residue may be inferred. Positions of bridges follow the written chain, without caps; N, C: chain ends. Residues, ends and D or L forms follow the SMILES beside them.

What was measured:
[1] = system: (Caco-2) colonic epithelial cells; test: Luciferase reporter gene (pGL2) internalisation and expression in Caco-2 cells; format: cell-based; settings: for improvement of transfection by chloroquine: 1 μg plasmid
Protocol: (§1) 5 μg of a luciferase reporter gene plasmid (pGL2 promega) was complexed with either the RGD-polylysine construct (possible structure of complex is shown in FIG. 1) or an equal concentration of polylysine in 100 μl of Optimem media (Gibco). The DNA/peptide complexes and also a DNA only control were then applied to 50% confluent cultured (Caco-2) colonic epithelial cells which were then allowed to express for 48 hours. The cells were then harvested and the cellular protein analysed for luciferase activity (Relative Light Units). The activity shown in FIG. 2 is adjusted to represent activity from 1 mg of cellular protein. In FIG. 2 the term "RGD peptide" is used to indicate the polylysine-integrin receptor binding protein described in Example 1.
The procedure described in Example 2 was repeated but using the polylysine-integrin receptor binding peptide described in Example 3 instead of the polylysine-integrin receptor binding peptide described in Example 1. Control experiments were also performed.
The polylysine-integrin receptor binding peptide of Example 1 was used in a repeat of the procedure of Example 2, but using 1 μg of luciferase reporter gene plasmid. The effect of chloroquine was also investigated.

COS-7 cells = test: Luciferase reporter gene transfection of COS-7 cells; format: cell-based; settings: 200 μm chloroquine
Protocol: as §1
The polylysine-integrin receptor binding peptide of Example 1 was again used. Essentially the methodology of Example 2 was followed with the substitution of COS-7 cells, and the use of different concentrations of chloroquine. It can be seen that 200 μm chloroquine gave a 4-fold increase of expression, compared with no chloroquine.
The methodology of Example 2 was repeated using COS-7 cells. In this experiment, different ratios of the K16 RGD peptide DNA were used with and without 100 μm chloroquine, with the results shown in FIG. 7. It can be seen that the optimum ratio was 37.5:1 in both the absence and presence of chloroquine.

CSCC[C@@H]1NC(=O)[C@H](CC(=O)O)NC(=O)CNC(=O)[C@H](CCCNC(=N)N)NC(=O)[C@@H](NC(=O)CNC(=O)CN)CSSC[C@@H](C(=O)N[C@@H](CCCCN)C(=O)N[C@@H](CCCCN)C(=O)N[C@@H](CCCCN)C(=O)N[C@@H](CCCCN)C(=O)N[C@@H](CCCCN)C(=O)N[C@@H](CCCCN)C(=O)N[C@@H](CCCCN)C(=O)N[C@@H](CCCCN)C(=O)N[C@@H](CCCCN)C(=O)N[C@@H](CCCCN)C(=O)N[C@@H](CCCCN)C(=O)N[C@@H](CCCCN)C(=O)N[C@@H](CCCCN)C(=O)N[C@@H](CCCCN)C(=O)N[C@@H](CCCCN)C(=O)N[C@@H](CCCCN)C(=O)O)NC(=O)CNC(=O)[C@H](Cc2ccccc2)NC1=O [Example 1, GGCRGDMFGC(K)16] (H-GGCRGDMFGCKKKKKKKKKKKKKKKK-OH; disulfide 3-10)
highest transfection level relative to lipofectamine (fold lower) ([1]; 2×RGD peptide and 100 nm chloroquine, 1 μg luciferase plasmid): approximately 10 fold
improvement of transfection by chloroquine ([1]; 2×RGD peptide+DNA): relatively small improvement
improvement of transfection by chloroquine ([1]; RGD-peptide+DNA (1× peptide)): the improvement was greater
increase of expression with chloroquine compared with no chloroquine (COS-7 cells): 4 fold
